What all share (assay): affinity purification with mass spectrometry
Test [1] addresses T1, ZBTB2 with a C-terminal FLAG and HA tag (human (cDNA from Jurkat cells)) (UniProt Q8N680).
T1 sequence: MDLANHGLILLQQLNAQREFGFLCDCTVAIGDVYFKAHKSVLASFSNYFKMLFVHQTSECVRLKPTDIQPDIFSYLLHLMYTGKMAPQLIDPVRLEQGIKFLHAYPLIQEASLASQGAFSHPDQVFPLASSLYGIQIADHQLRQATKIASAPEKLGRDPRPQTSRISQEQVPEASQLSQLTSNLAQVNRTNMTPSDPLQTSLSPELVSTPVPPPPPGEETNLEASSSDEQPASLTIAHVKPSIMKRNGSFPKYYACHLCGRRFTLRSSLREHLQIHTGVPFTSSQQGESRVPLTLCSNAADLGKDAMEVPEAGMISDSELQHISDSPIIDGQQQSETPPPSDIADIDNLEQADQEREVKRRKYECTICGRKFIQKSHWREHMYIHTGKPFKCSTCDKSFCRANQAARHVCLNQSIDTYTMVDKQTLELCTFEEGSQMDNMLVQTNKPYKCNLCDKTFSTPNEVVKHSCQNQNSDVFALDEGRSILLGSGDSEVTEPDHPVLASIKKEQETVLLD

By UniProt entry, the sequences of proteins in these tests, tags left out.
UniProt Q13395: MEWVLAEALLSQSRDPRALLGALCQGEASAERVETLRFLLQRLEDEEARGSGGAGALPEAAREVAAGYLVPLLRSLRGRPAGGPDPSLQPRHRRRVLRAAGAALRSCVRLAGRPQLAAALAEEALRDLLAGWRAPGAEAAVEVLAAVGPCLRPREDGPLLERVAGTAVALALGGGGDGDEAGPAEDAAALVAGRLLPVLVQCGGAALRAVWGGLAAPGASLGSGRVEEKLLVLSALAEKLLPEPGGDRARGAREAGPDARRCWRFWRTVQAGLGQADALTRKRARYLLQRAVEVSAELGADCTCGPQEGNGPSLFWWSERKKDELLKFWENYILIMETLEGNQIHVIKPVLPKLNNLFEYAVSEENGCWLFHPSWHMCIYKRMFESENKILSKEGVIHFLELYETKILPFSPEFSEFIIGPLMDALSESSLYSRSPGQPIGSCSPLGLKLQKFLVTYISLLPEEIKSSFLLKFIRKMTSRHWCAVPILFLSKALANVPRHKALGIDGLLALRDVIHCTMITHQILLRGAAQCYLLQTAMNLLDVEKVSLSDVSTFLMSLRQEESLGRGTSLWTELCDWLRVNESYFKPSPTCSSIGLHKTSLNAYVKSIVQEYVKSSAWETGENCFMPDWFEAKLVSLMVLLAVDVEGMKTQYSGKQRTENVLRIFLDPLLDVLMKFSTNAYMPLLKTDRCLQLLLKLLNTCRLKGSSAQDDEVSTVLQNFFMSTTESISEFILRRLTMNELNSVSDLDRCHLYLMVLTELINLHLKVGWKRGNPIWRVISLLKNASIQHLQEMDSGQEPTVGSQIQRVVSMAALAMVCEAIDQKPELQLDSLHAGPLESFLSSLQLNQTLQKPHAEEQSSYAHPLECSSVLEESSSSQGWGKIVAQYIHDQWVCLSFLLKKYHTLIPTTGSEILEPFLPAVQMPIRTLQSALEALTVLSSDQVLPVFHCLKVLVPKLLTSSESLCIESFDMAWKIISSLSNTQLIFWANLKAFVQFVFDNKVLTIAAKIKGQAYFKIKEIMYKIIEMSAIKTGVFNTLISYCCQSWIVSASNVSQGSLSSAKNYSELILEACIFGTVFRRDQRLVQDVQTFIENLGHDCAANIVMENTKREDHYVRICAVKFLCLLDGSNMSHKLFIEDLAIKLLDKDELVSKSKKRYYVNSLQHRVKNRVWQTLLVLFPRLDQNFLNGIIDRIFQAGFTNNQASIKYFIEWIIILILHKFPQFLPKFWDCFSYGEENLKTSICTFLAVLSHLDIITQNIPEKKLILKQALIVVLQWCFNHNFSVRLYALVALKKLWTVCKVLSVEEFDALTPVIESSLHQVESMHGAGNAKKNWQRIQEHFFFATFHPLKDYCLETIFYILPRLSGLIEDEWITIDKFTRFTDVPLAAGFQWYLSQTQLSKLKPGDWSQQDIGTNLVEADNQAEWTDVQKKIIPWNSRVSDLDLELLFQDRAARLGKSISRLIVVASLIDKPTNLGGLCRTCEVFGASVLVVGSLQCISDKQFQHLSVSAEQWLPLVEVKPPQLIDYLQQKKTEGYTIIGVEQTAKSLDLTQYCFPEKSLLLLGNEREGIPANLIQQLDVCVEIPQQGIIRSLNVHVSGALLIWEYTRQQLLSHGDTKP

The target of test [2] is T2, ZBTB25 with a C-terminal FLAG and HA tag (human (cDNA from Jurkat cells)) (UniProt P24278).
T2 sequence: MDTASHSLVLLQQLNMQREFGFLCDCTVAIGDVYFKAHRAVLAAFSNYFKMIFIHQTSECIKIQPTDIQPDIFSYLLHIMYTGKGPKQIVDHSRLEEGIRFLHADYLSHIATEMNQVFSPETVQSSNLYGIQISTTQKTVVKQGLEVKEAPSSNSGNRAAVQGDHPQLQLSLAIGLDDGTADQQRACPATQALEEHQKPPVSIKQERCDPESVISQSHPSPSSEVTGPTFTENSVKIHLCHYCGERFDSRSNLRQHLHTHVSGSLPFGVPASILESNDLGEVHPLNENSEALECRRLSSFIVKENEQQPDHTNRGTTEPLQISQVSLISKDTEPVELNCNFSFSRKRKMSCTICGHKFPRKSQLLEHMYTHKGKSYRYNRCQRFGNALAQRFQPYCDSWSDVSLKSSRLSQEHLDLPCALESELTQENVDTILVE

The target of test [3] is T3, ZNF639 with a C-terminal FLAG and HA tag (human (cDNA from Jurkat cells)) (UniProt Q9UID6).
T3 sequence: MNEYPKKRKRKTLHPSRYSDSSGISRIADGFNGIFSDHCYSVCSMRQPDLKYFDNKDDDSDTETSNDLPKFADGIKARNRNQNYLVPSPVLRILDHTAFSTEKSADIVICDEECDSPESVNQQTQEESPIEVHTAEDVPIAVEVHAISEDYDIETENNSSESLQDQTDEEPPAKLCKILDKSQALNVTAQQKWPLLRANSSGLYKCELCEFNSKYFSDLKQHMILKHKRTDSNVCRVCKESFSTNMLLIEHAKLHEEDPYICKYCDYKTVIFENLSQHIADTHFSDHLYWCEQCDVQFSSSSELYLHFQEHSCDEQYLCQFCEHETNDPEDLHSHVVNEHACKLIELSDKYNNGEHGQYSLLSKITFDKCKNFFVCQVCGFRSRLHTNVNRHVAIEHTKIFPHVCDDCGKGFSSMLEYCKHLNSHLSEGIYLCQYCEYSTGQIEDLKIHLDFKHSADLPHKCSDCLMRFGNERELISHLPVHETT

Test [4] deals with TAR (HIV-1) RNA binding protein 1 (TARBP1) with a C-terminal FLAG and HA tag (human) (UniProt Q13395).

No constants are given. Whether binding was seen depends on the method and setting. In cells and extracts the contact can be indirect. These calls come from enrichment with a bait or labelling near it, and not all partners need be listed. For some of these results: Where a sequence is shown, tags or fusion partners need not be part of it.

As to “TAR (HIV-1) RNA binding protein 1 (TARBP1) (from UniProt Q13395 1-1621)”, the binding entry in test [1], in test [2] and in test [3] was “binds” in each case.

B1: ZBTB2 (protein, UniProt Q8N680 1-514)
chain: T1 sequence
Consider B1, for which the binding entry in test [4] and in test [2] was “binds” throughout.

B2: ZBTB25 (protein, UniProt P24278 1-435)
chain: T2 sequence
In the case of B2, the binding entry in test [4], in test [1] and in test [3] was “binds” in each case.

B3: ZNF639 (protein, UniProt Q9UID6 1-485)
chain: T3 sequence
In the case of B3, the binding result in test [4] and in test [2] was “binds” throughout.

For the origin of these results see article doi:10.1101/2025.01.24.634708.
